Assay results as given in paper PMC8605025.
No constants are given. Whether binding was seen depends on the method and setting. In cells and extracts the contact can be indirect.

Amino acid sequences for entries named in this document (tags omitted).
UniProt P08962: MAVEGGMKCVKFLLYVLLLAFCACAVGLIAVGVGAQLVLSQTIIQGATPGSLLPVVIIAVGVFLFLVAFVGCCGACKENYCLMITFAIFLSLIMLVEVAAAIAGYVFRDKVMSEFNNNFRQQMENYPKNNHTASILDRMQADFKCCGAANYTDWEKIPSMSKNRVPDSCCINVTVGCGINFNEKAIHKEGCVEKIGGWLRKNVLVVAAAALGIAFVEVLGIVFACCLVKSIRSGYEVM

Target: CD63-FTS (human) (UniProt P08962)
Experiment: pull-down; Strep-Tactin pulldown from extracts of WT HeLa cells transfected with FTS-tagged bait; 20 mM HEPES, 200 mM NaCl, 1 mM DTT, 1% DDM; overnight at 4 °C; immunoblotting

B1: ATG9A (endogenous) (protein, UniProt Q7Z3C6 1-839)
chain: MAQFDTEYQRLEASYSDSPPGEEDLLVHVAEGSKSPWHHIENLDLFFSRVYNLHQKNGFTCMLIGEIFELMQFLFVVAFTTFLVSCVDYDILFANKMVNHSLHPTEPVKVTLPDAFLPAQVCSARIQENGSLITILVIAGVFWIHRLIKFIYNICCYWEIHSFYLHALRIPMSALPYCTWQEVQARIVQTQKEHQICIHKRELTELDIYHRILRFQNYMVALVNKSLLPLRFRLPGLGEAVFFTRGLKYNFELILFWGPGSLFLNEWSLKAEYKRGGQRLELAQRLSNRILWIGIANFLLCPLILIWQILYAFFSYAEVLKREPGALGARCWSLYGRCYLRHFNELEHELQSRLNRGYKPASKYMNCFLSPLLTLLAKNGAFFAGSILAVLIALTIYDEDVLAVEHVLTTVTLLGVTVTVCRSFIPDQHMVFCPEQLLRVILAHIHYMPDHWQGNAHRSQTRDEFAQLFQYKAVFILEELLSPIVTPLILIFCLRPRALEIIDFFRNFTVEVVGVGDTCSFAQMDVRQHGHPQWLSAGQTEASVYQQAEDGKTELSLMHFAITNPGWQPPRESTAFLGFLKEQVQRDGAAASLAQGGLLPENALFTSIQSLQSESEPLSLIANVVAGSSCRGPPLPRDLQGSRHRAEVASALRSFSPLQPGQAPTGRAHSTMTGSGVDARTASSGSSVWEGQLQSLVLSEYASTEMSLHALYMHQLHKQQAQAEPERHVWHRRESDESGESAPDEGGEGARAPQSIPRSASYPCAAPRPGAPETTALHGGFQRRYGGITDPGTVPRVPSHFSRLPLGGWAEDGQSASRHPEPVPEEGSEDELPPQVHKV
binding: no binding
